± gives the half width of the 95% confidence interval. The two proteases of the assay disagree for many of these sequences.
Key:
[1] = folding stability dG unfold (combined trypsin and chymotrypsin); higher = more stable
In short: (§1)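 Mini-proteins designed to be under 80 residues and free of cysteine were carried in a PA-tagged cDNA display construct and digested with trypsin and with chymotrypsin. Each protease was applied at 11 threefold-diluted concentrations, alongside a no-protease condition, before sequencing. K50 came from Bayesian fitting of the sequencing counts, and unfolding free energy was obtained by comparing it with a sequence-predicted unfolded-state K50 and a shared folded-state K50, for each protease separately or for both together. Designs were retained only if their AlphaFold2 dimer inter-PAE exceeded 15.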

[2] = folding stability dG unfold from chymotrypsin proteolysis; higher = more stable
In short: as §1

[3] = folding stability dG unfold from trypsin proteolysis; higher = more stable
In short: as §1

Row | Sequence | folding stability dG unfold [1] [kcal/mol] | folding stability dG unfold [2] [kcal/mol] | folding stability dG unfold [3] [kcal/mol]
1 | SAGGSAGGSAGLKPGDPVIAISIDIEPEIKVEPDGNKWKLKLEWEIKIDIHRFRVPPGAPSAGGSAGGSAGG [r17_186_TrROS] | 4.6 ± 0.69 | 5.24 ± 0.27 | 2.68 ± 0.37
2 | SAGGSAGGSAGGKKKKKPKKIKKLTLTVRITVTLENGETVELTARLTLDDDGNLRLEIESAGGSAGGSAGGS [r10_390_TrROS_Hall] | 4.02 ± 0.43 | 4.64 ± 0.27 | 2.48 ± 0.096
3 | SAGGTLKDLGITIEVTSVERYPDNPGQWVRYDYKVKIPDGWKIVIDIWIPPDGSIQMMIEIIPPGEPSAGGS [r8_216_TrROS] | 4.62 ± 0.43 | 4.96 ± 0.17 | 2.59 ± 0.26
4 | SAGGMFTVTTPDGVTRAVERKVTITLKDVNGVEKTITIDLTDATEEEIKEIAEEIEKKGYELVSITIESAGG [r13_227_JUSTAS] | 0.651 ± 0.2 | -0.907 ± 0.5 | 1.5 ± 0.038
5 | SAGGSAKIKIIEIDGKLIILEENKDGTIKAYIFNKKTGEIYKITFDKKTGKIVKVEKIKVKPGEKISAGGSA [r15_425_TrROS_Hall] | 4.46 ± 0.16 | 4.75 ± 0.064 | 2.13 ± 0.073
6 | IEELKKALEEAGYEVEIEKVKVKSEEEAKKLAEELEKKTGYKTIVIKKNKNGKEVLVIKIRKKKLPKGVKPS [r1_179_TrROS_Hall] | 3.1 ± 0.55 | 3.75 ± 0.16 | 0.841 ± 0.12
7 | SAGGSAGGSAGGKIKVKPGEKIEITLKNGYKIEIVKNKNGEKYAYIYNKNGKLIKKFKISAGGSAGGSAGGS [r10_150_TrROS_Hall] | 3.71 ± 0.23 | 4.3 ± 0.22 | 1.24 ± 0.071
8 | SAGGSAGGSTLEFKVKSKEEIEELKKKYPDVEIYEDPETKEYYVKVKLKPKKPLSPEDIKAKGSAGGSAGGS [r20_191_TrMRF] | 2.5 ± 0.073 | 2.9 ± 0.033 | 0.86 ± 0.073
9 | SAGGSAGGSEPERTLTLEVRLEVERLPDGTLRVRAEVTLPNGERLEIEATLRPDGRLELRIRPSAGGSAGGS [r12_317_TrROS_Hall] | 3.61 ± 0.19 | 3.96 ± 0.13 | 1.05 ± 0.057
10 | SAGGSMKLPEGWKVVEIKIEKNEDGTETITVLVKDEETGEYYKFKYKIKDGKIELVEVEKIPKEELSAGGSA [r2_371_TrROS_Hall] | 5.77 ± 0.58 | 6.02 ± 0.36 | 3.85 ± 0.43
11 | SAGGSAGGSMLRIRVYVKDTGEVVELEFDSLEEALAALPPGAEVERIEVVELPPVRTEEQREASAGGSAGGS [r12_851_TrROS_Hall] | 3.57 ± 0.068 | 3.93 ± 0.1 | 1.88 ± 0.09
12 | SAGGMVIETETDPETGVTYIKVKFPETGEEATLTYDPETNVWTVTGKSEKFKEFLKKLGVKNPKLIISSAGG [r13_511_JUSTAS] | 3.86 ± 0.17 | 4.42 ± 0.12 | 1.67 ± 0.098
13 | SAGGSAGGSAKTLTITLVFDSPEDALAAARALAEALGVEIKVEVRRRADGRLVVTAEIELPSAGGSAGGSAG [r3_273_TrROS_Hall] | 2.99 ± 0.048 | 3.35 ± 0.045 | 0.923 ± 0.023
14 | SAGGSAGGSAPWDIVPVTITFPIKIKPSPNGKPKEKEIPIKIEMWVIRDPNGNLFVGINISISAGGSAGGSA [r18_284_TrROS] | 5.01 ± 0.38 | 5.12 ± 0.51 | 3.03 ± 0.21
15 | SAEITLTVNGKKVRFTRNEDGYLTIEVYNADTGELVETFTVPLDEITSVTVTGEDGTITITVSDEALKKSAG [r14_755_TrROS_Hall] | 3.59 ± 0.16 | 3.76 ± 0.15 | 1.25 ± 0.096
16 | MKKVLVFNLGNDPALAKEILEKLKEEGYEVEVVVFTTEEEKKKAEELAKKTEEVIVIERPPEPPKYPENRVS [r1_497_JUSTAS] | 1.64 ± 0.11 | 2.1 ± 0.086 | -0.222 ± 0.16
17 | SAGGSASSISLPAPDLVTVEEEEVPETTVVRRRAPDGTVLEVTVHPEPVVEVRRPGTGEPVAVRPESAGGSA [r15_656_JUSTAS] | 0.966 ± 0.031 | 1.458 ± 0.011 | -1.2 ± 0.17
18 | SAGGSAGGSAGGRIRIRVETRTDANGNLTTTVQLEEEEPPPPPEPQTTTTTTTQTPPQTSAGGSAGGSAGGS [r10_496_TrROS_Hall] | 1.98 ± 0.56 | 0.949 ± 0.31 | 3.01 ± 0.22
19 | SAKEIKEPKEVYKITIKVKNPNGEEKEIVITLSKEELENEEVLKKLVEELKEKGYEVEVKIEPVKVEEPSAG [r14_60_TrROS_Hall] | 2.74 ± 0.1 | 3.25 ± 0.051 | 0.938 ± 0.1
20 | SAGGSMYKIKIENENGEIFEVEVKITEVKEVNGKLYLKIEVTIDGKTYTLTIPLEKIKKIEIYEEPSAGGSA [r2_319_TrROS_Hall] | 4.42 ± 0.14 | 4.77 ± 0.1 | 2.73 ± 0.076
21 | SAGGSAGGSMTIRIENEDGEEVIEIEVPPGAKAEDLEIEIGGKKAKIVEVDEETGRVTIKIEPSAGGSAGGS [r12_675_TrROS_Hall] | 1.68 ± 0.43 | 2.52 ± 0.13 | 0.258 ± 0.17

Some of the entries so far, as tab-separated lines.
Row	Sequence	folding stability dG unfold [1] [kcal/mol]	folding stability dG unfold [2] [kcal/mol]	folding stability dG unfold [3] [kcal/mol]
1	SAGGSAGGSAGLKPGDPVIAISIDIEPEIKVEPDGNKWKLKLEWEIKIDIHRFRVPPGAPSAGGSAGGSAGG [r17_186_TrROS]	4.6 ± 0.69	5.24 ± 0.27	2.68 ± 0.37
2	SAGGSAGGSAGGKKKKKPKKIKKLTLTVRITVTLENGETVELTARLTLDDDGNLRLEIESAGGSAGGSAGGS [r10_390_TrROS_Hall]	4.02 ± 0.43	4.64 ± 0.27	2.48 ± 0.096
4	SAGGMFTVTTPDGVTRAVERKVTITLKDVNGVEKTITIDLTDATEEEIKEIAEEIEKKGYELVSITIESAGG [r13_227_JUSTAS]	0.651 ± 0.2	-0.907 ± 0.5	1.5 ± 0.038
7	SAGGSAGGSAGGKIKVKPGEKIEITLKNGYKIEIVKNKNGEKYAYIYNKNGKLIKKFKISAGGSAGGSAGGS [r10_150_TrROS_Hall]	3.71 ± 0.23	4.3 ± 0.22	1.24 ± 0.071
8	SAGGSAGGSTLEFKVKSKEEIEELKKKYPDVEIYEDPETKEYYVKVKLKPKKPLSPEDIKAKGSAGGSAGGS [r20_191_TrMRF]	2.5 ± 0.073	2.9 ± 0.033	0.86 ± 0.073
11	SAGGSAGGSMLRIRVYVKDTGEVVELEFDSLEEALAALPPGAEVERIEVVELPPVRTEEQREASAGGSAGGS [r12_851_TrROS_Hall]	3.57 ± 0.068	3.93 ± 0.1	1.88 ± 0.09
13	SAGGSAGGSAKTLTITLVFDSPEDALAAARALAEALGVEIKVEVRRRADGRLVVTAEIELPSAGGSAGGSAG [r3_273_TrROS_Hall]	2.99 ± 0.048	3.35 ± 0.045	0.923 ± 0.023
17	SAGGSASSISLPAPDLVTVEEEEVPETTVVRRRAPDGTVLEVTVHPEPVVEVRRPGTGEPVAVRPESAGGSA [r15_656_JUSTAS]	0.966 ± 0.031	1.458 ± 0.011	-1.2 ± 0.17
21	SAGGSAGGSMTIRIENEDGEEVIEIEVPPGAKAEDLEIEIGGKKAKIVEVDEETGRVTIKIEPSAGGSAGGS [r12_675_TrROS_Hall]	1.68 ± 0.43	2.52 ± 0.13	0.258 ± 0.17

Further entries follow.

Row | Sequence | folding stability dG unfold [1] [kcal/mol] | folding stability dG unfold [2] [kcal/mol] | folding stability dG unfold [3] [kcal/mol]
22 | SAMVTVRIESYDPERGVLRLVIERDEAHPDIPVPPALTDAIRDAFAALGLEVRVTRHPDGTVTIEIPVPSAG [r14_865_TrMRF] | 5.75 ± 0.24 | 5.75 ± 0.12 | 3.24 ± 0.081
23 | SAGGNWEIEDRKEETIPFNIKFEVYVFKHDDHWFIFIRIEIVIPPIPPPPPPPPPPISPEDNKKNKNKSAGG [r13_760_TrROS] | 3.61 ± 0.17 | 3.88 ± 0.06 | -0.349 ± 0.56
24 | SAGGSVWEIEYLIPPNETLEDAASWIANEIMEWLQERHGGPFKIDVKPVERPPDDWTYVKVTISFDSAGGSA [r2_214_TrROS] | 3.46 ± 0.31 | 4.1 ± 0.28 | 1.67 ± 0.12
25 | SAGGSAGGSAGKVYRFDSLEEALKALKEKGYEIVSIEVVEVDGKKYVKVKIEIKPKKEKKSAGGSAGGSAGG [r11_141_TrROS_Hall] | 3.14 ± 0.23 | 3.72 ± 0.22 | 1.03 ± 0.074
26 | SAGGSAKIKLPSKEEVEKLVKELEKKGYKVVSVEVKYDKETKEVYVKIEIYHKKTKKKITLEIKVKSAGGSA [r15_123_TrROS_Hall] | 4.58 ± 0.39 | 5.24 ± 0.24 | 3.07 ± 0.13
27 | SAGGMPGFEVIEEIEIEVDGKTYKITVLRNKETNEYIIEIEDEETGEKKTIVVKPGEKIEISAEELKSAGGS [r16_768_TrROS_Hall] | 3.86 ± 0.15 | 4.14 ± 0.048 | 1.82 ± 0.11
28 | SARIVLPDGREVDFEIVRVERFPEGVRILALYRHDDTYRLVEFEIPPFGEIRLVSEVEVPLPPGFPGLRSAG [r14_13_TrMRF] | 3.75 ± 0.067 | 4.243 ± 0.038 | 1.471 ± 0.011
29 | SAGGSAGGSAGGLATFDDGKVVEFSTLEELEAYLKGVPVKRVRIFDRVKGGEVEVEVNPSAGGSAGGSAGGS [r10_1191_TrMRF] | 1.12 ± 0.065 | 1.6 ± 0.062 | -0.791 ± 0.21
30 | SKKYEPIATLTLTLTLKDGNKVTIKIEVYRDENGNYTVTITLPNGKKLTFTFPVGEKITLDQLKELLKKLSA [r9_616_TrROS_Hall] | 3.95 ± 0.23 | 4.32 ± 0.06 | 1.98 ± 0.1
31 | SAGGSAMTIKIKLPDGKIITIKAKSIEEAIEALKKLTGYEITSVEIVKIDKEKGEIYIKIKIKKKKSAGGSA [r15_447_TrROS_Hall] | 4.09 ± 0.22 | 4.81 ± 0.26 | 2.32 ± 0.12
32 | SAGGSAGGSAGGSMKITEDPAKGTVTISSTEDNKVVVIPASTLTPEQIRAEAKAAGIKISAGGSAGGSAGGS [r4_49_JUSTAS] | 0.735 ± 0.11 | 1.2 ± 0.034 | -0.826 ± 0.16
33 | SAGGSMKIEKKEDGTLVITLPAEDEEKIEELKKLLEELGFEVVKVEKNENGEVTITVKLTPEAIKKSAGGSA [r2_224_TrROS_Hall] | 2.52 ± 0.45 | 2.95 ± 0.27 | 0.841 ± 0.17
34 | SAGIKELAEKLAEELKKKGYEVEVEVDEETGTITVTVKKDGELYEIEIKIDKKTNKVEVKIKPLPKKKSAGG [r19_2_TrROS_Hall] | 1.88 ± 0.25 | 2.31 ± 0.12 | 0.197 ± 0.12
35 | SAMTVTVVLEDLENLTAEELEEALREAGIKEVKIVKIERVEDKVVITVEVEPGMTVEEVEEALRKVLEESAG [r14_657_TrROS_Hall] | 3.12 ± 0.14 | 0.987 ± 0.1 | 3.81 ± 0.21
36 | SAGGSAGGKTITVKLEDGTVLKITVEKDEDGKLTVKVEVYKLDKNGKPLSEEEVKNLVKELLEKSAGGSAGG [r6_234_TrROS_Hall] | 3.42 ± 0.18 | 4 ± 0.061 | 1.96 ± 0.091
37 | SAGGMTIYVPKENVEKVLKELKKKGFKPEKVEKKGDYVVVKFKKKTKDKEYELTIIFLPPDNPENPKSAGGS [r8_307_TrMRF] | 4.32 ± 0.12 | 4.52 ± 0.067 | 1.92 ± 0.053
38 | SAGGSAGGSAGGSAADPGQWKVIPIQISFEMKYTRMDPDGKPEEHTMEFTFNIPFVVPDSAGGSAGGSAGGS [r4_418_TrROS] | 4.32 ± 0.33 | 5 ± 0.14 | 2.9 ± 0.1
39 | SMVRIYVHPEMSEEERKKAEELIKRILEKLEEGKTIEEIAKEIKEETNLPNVKIVRIEILEPPSEEELKKSA [r9_620_TrROS_Hall] | 2.83 ± 0.45 | 3.33 ± 0.29 | 1.19 ± 0.062
40 | SMEKIKKEIEKAAKELGIKVKSIKIEENPETKTVNVTVEIENGKTINFTFKKKKNGTYEMDINEIKKQAKSA [r9_85_TrMRF] | > 6 | 6.21 ± 0.24 | 2.42 ± 0.095
41 | SAGKTIWIPPGMPREQAEDIARELAQENGGEDVEVERHPDNPNMVKVEVKNPNNGKDIEIHIMPPEQLESAG [r5_912_TrROS] | 0.556 ± 0.66 | -0.000141 ± 0.2 | 3.28 ± 0.36

Reference: the supplement of paper PMC12764529
